System: wet algae
Assay: Algal cell lysis with ionic liquid and oil extraction / transesterification
Assay type: cell-based
Conditions: for state of liquid phase after lysis and hexane addition / composition of recovered oil: cell lysis 80° C. 1 h; for composition of recovered oil: NMR and GC
[1] = Example 9, procedure of Example 1

Molecule	Emulsion formation [1]	Recycle [1]	state of liquid phase after lysis and hexane addition	composition of recovered oil
CCCC[n+]1ccn(C)c1.[Cl-] [[BMIM]Cl, 1-methyl-3-butylimidazolium chloride]	Yes	Difficult	practically an emulsion	mainly fatty acids
CC(=O)[O-].CCCCn1cc[n+](C)c1 [[BMIM] Acetate, 1-butyl-3-methylimidazolium acetate]			practically an emulsion	mainly fatty acids
1-ethyl-3-methylimidazolium ethyl sulfate [[EMIM] Ethyl Sulfate]			practically an emulsion	mainly fatty acids

Reference: US10035971B2, “Method for treating algae” (STAMICARBON B.V., priority 2014, dated 2018)
